Laboratory results reported in the supplement of paper PMC10849652.
The other results are listed elsewhere or left out.

By UniProt entry, the sequences of proteins in these tests, tags left out. Where a name states a change or a piece, a line headed by the entry shows the natural chain unless it says otherwise.
UniProt Q9NZZ3: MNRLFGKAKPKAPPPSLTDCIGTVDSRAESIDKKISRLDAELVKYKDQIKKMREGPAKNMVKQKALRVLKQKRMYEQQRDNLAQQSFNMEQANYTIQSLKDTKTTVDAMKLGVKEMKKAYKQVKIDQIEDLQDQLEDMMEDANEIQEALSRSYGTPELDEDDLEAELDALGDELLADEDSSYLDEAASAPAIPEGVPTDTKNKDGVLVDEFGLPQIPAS
UniProt O14735: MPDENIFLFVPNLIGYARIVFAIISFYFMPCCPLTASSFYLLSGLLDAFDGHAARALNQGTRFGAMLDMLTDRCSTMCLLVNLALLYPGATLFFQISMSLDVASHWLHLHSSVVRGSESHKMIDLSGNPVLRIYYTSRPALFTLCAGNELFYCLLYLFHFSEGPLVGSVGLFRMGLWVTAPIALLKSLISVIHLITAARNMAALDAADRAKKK
UniProt Q9BWS9: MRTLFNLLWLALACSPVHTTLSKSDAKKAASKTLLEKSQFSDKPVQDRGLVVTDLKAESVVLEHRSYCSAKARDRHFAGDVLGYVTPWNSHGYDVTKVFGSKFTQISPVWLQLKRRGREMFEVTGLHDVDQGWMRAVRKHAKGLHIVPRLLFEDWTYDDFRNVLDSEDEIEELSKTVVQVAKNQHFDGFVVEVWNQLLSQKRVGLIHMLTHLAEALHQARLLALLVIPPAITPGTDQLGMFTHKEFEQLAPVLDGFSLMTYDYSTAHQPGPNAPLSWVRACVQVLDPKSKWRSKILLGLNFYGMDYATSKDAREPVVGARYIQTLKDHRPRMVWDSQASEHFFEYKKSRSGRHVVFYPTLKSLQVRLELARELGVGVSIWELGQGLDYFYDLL
UniProt O43633: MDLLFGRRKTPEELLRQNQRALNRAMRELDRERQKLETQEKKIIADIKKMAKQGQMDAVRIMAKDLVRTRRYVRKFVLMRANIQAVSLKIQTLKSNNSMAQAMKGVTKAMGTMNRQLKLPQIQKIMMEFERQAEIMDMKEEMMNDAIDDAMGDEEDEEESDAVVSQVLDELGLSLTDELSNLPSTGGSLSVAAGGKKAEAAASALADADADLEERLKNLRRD
UniProt Q9NX63: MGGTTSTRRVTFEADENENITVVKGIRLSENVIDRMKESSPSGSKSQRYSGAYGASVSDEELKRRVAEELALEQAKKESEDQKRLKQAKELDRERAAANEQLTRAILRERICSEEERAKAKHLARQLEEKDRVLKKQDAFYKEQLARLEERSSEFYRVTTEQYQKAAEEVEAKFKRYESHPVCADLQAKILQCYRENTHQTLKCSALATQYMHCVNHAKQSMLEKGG
UniProt P26374: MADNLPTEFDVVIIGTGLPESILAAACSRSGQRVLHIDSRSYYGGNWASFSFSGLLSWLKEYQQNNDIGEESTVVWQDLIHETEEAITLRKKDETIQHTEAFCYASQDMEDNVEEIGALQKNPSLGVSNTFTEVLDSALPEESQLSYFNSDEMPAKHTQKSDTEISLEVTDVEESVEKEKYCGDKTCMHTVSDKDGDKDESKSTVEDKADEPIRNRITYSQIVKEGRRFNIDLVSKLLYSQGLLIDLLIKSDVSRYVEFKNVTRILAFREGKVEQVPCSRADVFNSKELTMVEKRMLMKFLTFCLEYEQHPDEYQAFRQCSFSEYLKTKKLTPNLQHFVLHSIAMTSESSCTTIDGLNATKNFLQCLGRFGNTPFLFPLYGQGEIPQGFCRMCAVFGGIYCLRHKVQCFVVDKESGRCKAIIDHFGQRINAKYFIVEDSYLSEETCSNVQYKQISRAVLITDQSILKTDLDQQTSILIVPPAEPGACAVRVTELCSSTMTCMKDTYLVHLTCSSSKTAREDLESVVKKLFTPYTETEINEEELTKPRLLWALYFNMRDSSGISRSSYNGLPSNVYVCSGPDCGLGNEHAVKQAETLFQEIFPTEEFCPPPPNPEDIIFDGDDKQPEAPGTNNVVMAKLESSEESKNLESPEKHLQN
UniProt Q5SW79: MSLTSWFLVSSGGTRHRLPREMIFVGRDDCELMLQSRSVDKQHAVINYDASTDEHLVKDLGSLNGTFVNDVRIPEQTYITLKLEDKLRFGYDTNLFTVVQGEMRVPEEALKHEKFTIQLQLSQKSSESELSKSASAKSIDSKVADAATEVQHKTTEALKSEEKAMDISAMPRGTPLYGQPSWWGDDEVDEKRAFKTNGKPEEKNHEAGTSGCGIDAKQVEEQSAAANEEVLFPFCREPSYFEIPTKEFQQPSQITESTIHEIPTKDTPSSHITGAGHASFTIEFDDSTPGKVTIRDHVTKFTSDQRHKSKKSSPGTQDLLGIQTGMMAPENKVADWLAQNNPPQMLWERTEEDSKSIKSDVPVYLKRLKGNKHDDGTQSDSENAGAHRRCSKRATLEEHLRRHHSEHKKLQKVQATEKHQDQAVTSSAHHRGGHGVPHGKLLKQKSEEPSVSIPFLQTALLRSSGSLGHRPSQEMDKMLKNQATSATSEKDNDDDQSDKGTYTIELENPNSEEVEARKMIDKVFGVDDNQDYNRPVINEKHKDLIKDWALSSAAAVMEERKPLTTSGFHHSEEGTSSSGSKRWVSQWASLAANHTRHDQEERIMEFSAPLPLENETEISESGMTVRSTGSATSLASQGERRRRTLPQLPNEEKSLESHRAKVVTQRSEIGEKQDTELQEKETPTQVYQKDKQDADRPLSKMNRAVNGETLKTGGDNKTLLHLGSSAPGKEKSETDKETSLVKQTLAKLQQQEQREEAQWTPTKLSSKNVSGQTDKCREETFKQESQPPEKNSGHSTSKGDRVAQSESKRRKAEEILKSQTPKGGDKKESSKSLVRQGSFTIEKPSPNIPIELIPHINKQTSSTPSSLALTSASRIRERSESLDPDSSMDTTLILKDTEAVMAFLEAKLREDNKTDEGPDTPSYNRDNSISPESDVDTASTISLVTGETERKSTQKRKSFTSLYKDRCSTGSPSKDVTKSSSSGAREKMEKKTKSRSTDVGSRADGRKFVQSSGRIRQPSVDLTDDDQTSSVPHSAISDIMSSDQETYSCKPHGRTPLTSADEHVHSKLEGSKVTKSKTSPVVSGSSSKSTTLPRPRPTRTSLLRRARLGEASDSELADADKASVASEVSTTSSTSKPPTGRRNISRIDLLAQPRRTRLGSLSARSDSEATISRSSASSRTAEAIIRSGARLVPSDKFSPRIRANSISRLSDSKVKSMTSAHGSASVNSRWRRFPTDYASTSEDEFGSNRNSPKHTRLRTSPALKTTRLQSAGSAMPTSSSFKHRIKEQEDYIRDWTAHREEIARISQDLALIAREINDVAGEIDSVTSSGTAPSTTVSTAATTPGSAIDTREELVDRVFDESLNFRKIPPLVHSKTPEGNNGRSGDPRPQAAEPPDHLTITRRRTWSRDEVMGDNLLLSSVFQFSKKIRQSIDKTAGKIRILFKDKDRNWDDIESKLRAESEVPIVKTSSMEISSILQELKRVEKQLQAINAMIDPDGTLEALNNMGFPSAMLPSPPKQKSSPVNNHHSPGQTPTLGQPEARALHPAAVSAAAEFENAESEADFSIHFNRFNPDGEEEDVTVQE
UniProt P08603, whole entry, looked up: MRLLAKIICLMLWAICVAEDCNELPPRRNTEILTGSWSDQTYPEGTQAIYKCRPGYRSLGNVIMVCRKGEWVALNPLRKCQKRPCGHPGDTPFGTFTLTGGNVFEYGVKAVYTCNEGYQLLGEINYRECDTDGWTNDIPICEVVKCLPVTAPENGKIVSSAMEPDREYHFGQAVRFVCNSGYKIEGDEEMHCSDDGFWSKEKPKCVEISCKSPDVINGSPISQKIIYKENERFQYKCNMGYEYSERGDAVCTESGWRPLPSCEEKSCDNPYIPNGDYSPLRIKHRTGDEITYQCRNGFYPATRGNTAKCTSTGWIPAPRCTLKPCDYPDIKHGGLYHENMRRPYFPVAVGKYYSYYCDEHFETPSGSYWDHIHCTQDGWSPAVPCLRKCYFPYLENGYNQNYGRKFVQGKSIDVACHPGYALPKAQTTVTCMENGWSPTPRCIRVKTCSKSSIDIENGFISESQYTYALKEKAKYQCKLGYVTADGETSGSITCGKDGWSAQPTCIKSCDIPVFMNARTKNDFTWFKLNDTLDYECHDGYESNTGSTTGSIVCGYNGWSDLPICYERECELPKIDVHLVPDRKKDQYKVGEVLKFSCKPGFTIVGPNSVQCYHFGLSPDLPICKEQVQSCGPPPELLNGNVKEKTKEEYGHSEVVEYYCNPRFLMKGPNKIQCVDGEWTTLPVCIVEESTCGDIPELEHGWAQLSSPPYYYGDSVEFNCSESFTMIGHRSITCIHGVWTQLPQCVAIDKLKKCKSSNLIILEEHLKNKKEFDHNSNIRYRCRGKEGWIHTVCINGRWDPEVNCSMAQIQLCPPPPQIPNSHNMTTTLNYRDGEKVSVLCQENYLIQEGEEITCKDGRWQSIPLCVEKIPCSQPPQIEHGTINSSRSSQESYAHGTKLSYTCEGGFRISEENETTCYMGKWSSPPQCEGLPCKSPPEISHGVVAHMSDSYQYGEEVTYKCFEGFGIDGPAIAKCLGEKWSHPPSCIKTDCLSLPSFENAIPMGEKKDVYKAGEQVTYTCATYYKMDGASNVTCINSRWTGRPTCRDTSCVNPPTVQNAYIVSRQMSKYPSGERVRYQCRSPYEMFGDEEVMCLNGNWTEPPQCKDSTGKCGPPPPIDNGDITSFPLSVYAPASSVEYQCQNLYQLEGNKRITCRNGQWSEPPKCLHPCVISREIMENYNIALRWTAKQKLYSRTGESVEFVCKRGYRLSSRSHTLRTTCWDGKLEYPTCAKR
UniProt Q5VV42: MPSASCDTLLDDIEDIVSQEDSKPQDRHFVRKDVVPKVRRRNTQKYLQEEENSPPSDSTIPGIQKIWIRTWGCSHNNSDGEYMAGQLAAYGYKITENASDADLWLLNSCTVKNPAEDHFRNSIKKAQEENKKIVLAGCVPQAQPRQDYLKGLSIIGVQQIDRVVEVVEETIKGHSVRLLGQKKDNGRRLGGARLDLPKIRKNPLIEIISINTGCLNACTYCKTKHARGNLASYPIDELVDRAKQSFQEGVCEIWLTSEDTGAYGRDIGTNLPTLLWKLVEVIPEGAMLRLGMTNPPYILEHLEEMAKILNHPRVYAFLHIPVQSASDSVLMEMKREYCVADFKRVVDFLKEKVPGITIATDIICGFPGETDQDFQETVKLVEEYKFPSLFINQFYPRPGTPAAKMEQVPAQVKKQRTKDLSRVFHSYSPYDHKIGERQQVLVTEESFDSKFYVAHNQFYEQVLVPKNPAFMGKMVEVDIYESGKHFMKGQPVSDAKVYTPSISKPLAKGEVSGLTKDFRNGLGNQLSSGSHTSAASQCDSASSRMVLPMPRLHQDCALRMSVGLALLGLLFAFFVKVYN
UniProt Q9UFW8: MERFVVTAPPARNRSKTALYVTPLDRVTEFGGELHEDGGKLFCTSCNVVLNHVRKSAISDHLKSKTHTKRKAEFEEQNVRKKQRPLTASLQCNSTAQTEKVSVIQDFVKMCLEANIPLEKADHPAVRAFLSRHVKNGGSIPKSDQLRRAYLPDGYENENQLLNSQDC
UniProt Q9BY43: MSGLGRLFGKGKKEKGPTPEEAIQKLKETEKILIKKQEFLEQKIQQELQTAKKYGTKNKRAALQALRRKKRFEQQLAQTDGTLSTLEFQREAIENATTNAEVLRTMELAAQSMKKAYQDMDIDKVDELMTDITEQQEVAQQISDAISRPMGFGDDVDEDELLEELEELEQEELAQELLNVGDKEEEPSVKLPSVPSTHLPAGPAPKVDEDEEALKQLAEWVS
UniProt Q99618: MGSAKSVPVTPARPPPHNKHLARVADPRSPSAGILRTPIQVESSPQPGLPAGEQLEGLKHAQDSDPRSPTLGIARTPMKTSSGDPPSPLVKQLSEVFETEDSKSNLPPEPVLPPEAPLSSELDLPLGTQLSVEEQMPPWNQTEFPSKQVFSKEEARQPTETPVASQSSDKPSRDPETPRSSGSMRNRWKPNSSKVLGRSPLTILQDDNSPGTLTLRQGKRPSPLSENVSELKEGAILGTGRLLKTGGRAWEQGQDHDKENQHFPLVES
UniProt P50613: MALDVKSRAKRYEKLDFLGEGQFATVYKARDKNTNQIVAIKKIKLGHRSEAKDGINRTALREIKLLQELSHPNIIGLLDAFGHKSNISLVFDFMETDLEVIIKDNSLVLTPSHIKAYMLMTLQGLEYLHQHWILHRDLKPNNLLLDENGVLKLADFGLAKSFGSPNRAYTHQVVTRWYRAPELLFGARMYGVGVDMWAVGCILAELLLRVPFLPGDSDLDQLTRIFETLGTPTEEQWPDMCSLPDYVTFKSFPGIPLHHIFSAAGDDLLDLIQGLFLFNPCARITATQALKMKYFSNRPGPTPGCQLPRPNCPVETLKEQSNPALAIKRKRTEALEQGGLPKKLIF
UniProt Q9UQN3, whole entry, looked up: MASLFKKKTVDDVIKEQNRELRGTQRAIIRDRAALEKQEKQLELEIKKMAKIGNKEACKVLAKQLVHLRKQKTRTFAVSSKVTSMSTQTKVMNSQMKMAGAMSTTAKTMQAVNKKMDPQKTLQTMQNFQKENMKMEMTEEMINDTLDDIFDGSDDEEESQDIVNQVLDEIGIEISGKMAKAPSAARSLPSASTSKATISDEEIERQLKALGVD

Key:
Experiment in all cases: log2 fold change, soluble protein after heating vs DMSO (PISA); higher = thermal stabilisation; K562 cells, 10 uM, 30 min; active = over 0.2 and 3.5 SD of the protein, either way, in both replicates (recomputed)
[1] = compound: CC1=C(C=C(C=C1)NC(=O)C2=CC(=CC=C2)C(C)(C)C#N)NC3=CC4=C(C=C3)N=CN(C4=O)C
How it was run: (§1)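 K562 cells at 2×10^6 cells/mL were exposed to 10 μM compound for 30 min, then aliquots were heated for 3 min across 48°C-58°C, pooled, and extracted in PBS containing 0.5% NP-40 at 4°C. The supernatant after 21,000xg for 90 min was taken as soluble protein and measured by TMTpro 16plex LC-MS/MS with channel sums equalised. Thermal stability is reported relative to control samples, with values from duplicates. Fold changes are given on a log2 scale.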

[2] = compound: CC1=C(C=C(C=C1)NC(=O)C2=CC(=CC=C2)N(C)C)NC(=O)C3=CC=C(C=C3)O
How it was run: as §1

[3] = compound: CC1=CC=C(C=C1)SC2=C3C=C(SC3=CN=C2)C(=O)N
How it was run: as §1

[4] = compound: CC1=NC(=CC=C1)C2=C(N=C(N2)C(C)(C)C)C3=CC4=NC=CN=C4C=C3
How it was run: as §1

Nexturastat A = compound: CCCCN(Cc1ccc(C(=O)NO)cc1)C(=O)Nc1ccccc1 [Nexturastat A]
How it was run: as §1

vemurafenib = compound: CCCS(=O)(=O)Nc1ccc(F)c(C(=O)c2c[nH]c3ncc(-c4ccc(Cl)cc4)cc23)c1F [vemurafenib]
How it was run: as §1

[5] = compound: CCCS(=O)(=O)Nc1ccc(F)c(C(=O)c2c[nH]c3ncc(Cl)cc23)c1F
How it was run: as §1

[6] = compound: CCCc1cc(C)[nH]c(=O)c1CNC(=O)c1cc(-c2ccnc(N3CCN(C)CC3)c2)cc2c1cnn2C(C)C
How it was run: as §1

givinostat = compound: CCN(CC)Cc1ccc2cc(COC(=O)Nc3ccc(C(=O)NO)cc3)ccc2c1 [givinostat]
How it was run: as §1

barasertib = compound: CCN(CCCOc1ccc2c(Nc3cc(CC(=O)Nc4cccc(F)c4)[nH]n3)ncnc2c1)CCOP(=O)(O)O [barasertib]
How it was run: as §1

[7] = compound: CC[C@@H]1C(=O)N(C)c2cnc(Nc3ccc(C(=O)NC4CCN(C)CC4)cc3OC)nc2N1C1CCCC1
How it was run: as §1

volasertib = compound: CC[C@@H]1C(=O)N(C)c2cnc(Nc3ccc(C(=O)N[C@H]4CC[C@H](N5CCN(CC6CC6)CC5)CC4)cc3OC)nc2N1C(C)C [volasertib]
How it was run: as §1

[8] = compound: CC[C@H](C)N1C=C(C2=C(C=C(C=C21)C3=CN=C(C=C3)N4CCNCC4)C(=O)NCC5=C(C=C(NC5=O)C)C)C
How it was run: as §1

epoxomicin = compound: CC[C@H](C)[C@@H](C(=O)N[C@@H]([C@@H](C)O)C(=O)N[C@@H](CC(C)C)C(=O)[C@]1(CO1)C)NC(=O)[C@H]([C@@H](C)CC)N(C)C(=O)C [epoxomicin]
How it was run: as §1

[9] = compound: CCn1c(C(=O)N(C2CC2)C2CC2)cc2c3c(ncn3C)c(Nc3cc(C)n(C)n3)nc21
How it was run: as §1

[10] = compound: CCn1cc(-c2ccnc3[nH]c(-c4cccc(CN(C)C)c4)cc23)c(-c2ccc(NC(=O)N(C)C)cc2)n1
How it was run: as §1

[11] = compound: CN(C)CC(=O)Nc1ccc2[nH]c(=O)c3ccccc3c2c1
How it was run: as §1

rosiglitazone = compound: CN(CCOC1=CC=C(C=C1)C[C@H]2C(=O)NC(=O)S2)C3=CC=CC=N3 (racemic) [rosiglitazone]
How it was run: as §1

[12] = compound: CN1C2=C(C3=C1C(=O)N(N=C3)CC4=CC(=CC=C4)N)SC(=C2)S(=O)C
How it was run: as §1

[13] = compound: CN1CCC(CNc2ccc3ncc(-c4cccc(OC(F)(F)F)c4)n3n2)CC1
How it was run: as §1

Measured: log2 fold change

CHMP5 (UniProt Q9NZZ3)
inactive: [1] -0.04 | [2] -0.009 | [3] -0.056 | [4] 0.032 | Nexturastat A -0.101 | vemurafenib -0.013 | [5] -0.012 | [6] -0.04 | givinostat -0.02 | barasertib 0.007 | [7] -0.077 | volasertib 0.018 | [8] -0.009 | epoxomicin -0.006 | [9] 0.016 | [10] 0.008 | [11] -0.029 | rosiglitazone -0.059 | [12] -0.014 | [13] -0.104

CDIPT (UniProt O14735)
inactive: [1] 0.102 | [2] 0.037 | [3] -0.03 | [4] -0.038 | Nexturastat A 0.008 | vemurafenib 0.021 | [5] 0.077 | [6] -0.03 | givinostat -0.017 | barasertib 0.01 | [7] -0.083 | volasertib 0.048 | [8] -0.005 | epoxomicin 0.139 | [9] 0.003 | [10] 0.148 | [11] 0.139 | rosiglitazone -0.029 | [12] -0.074 | [13] -0.063

CHID1 (UniProt Q9BWS9)
inactive: [1] 0.018 | [2] 0.023 | [3] -0.001 | [4] -0.056 | Nexturastat A 0.092 | vemurafenib -0.058 | [5] -0.03 | [6] 0.051 | givinostat 0.028 | barasertib -0.034 | [7] -0.011 | volasertib -0.012 | [8] -0.022 | epoxomicin 0.05 | [9] 0.045 | [10] 0.011 | [11] -0.052 | rosiglitazone 0.009 | [12] 0.026 | [13] 0.084

CHMP2A (UniProt O43633)
inactive: [1] 0.017 | [2] -0.01 | [3] 0 | [4] 0.047 | Nexturastat A -0.11 | vemurafenib 0.049 | [5] 0.032 | [6] -0.117 | givinostat -0.005 | barasertib 0.02 | [7] -0.059 | volasertib -0.04 | [8] 0.006 | epoxomicin 0.039 | [9] 0.021 | [10] -0.035 | [11] -0.004 | rosiglitazone 0.002 | [12] -0.034 | [13] -0.025

CDC73 (UniProt Q6P1J9)
inactive: [1] -0.503 | [2] 0 | [3] -0.067 | [4] -0.055 | Nexturastat A 0.111 | vemurafenib 0.129 | [5] 0.037 | [6] 0.282 | givinostat 0.078 | barasertib 0.045 | [7] -0.134 | volasertib -0.251 | [8] 0.239 | epoxomicin -0.209 | [9] -0.138 | [10] 0.104 | [11] 0.024 | rosiglitazone -0.01 | [12] 0.137 | [13] -0.309

CHCHD3 (UniProt Q9NX63)
inactive: [1] -0.007 | [2] 0.021 | [3] 0.136 | [4] 0.006 | Nexturastat A -0.078 | vemurafenib -0.031 | [5] -0.054 | [6] -0.037 | givinostat -0.053 | barasertib -0.002 | [7] -0.028 | volasertib 0.002 | [8] 0.002 | epoxomicin -0.005 | [9] 0.009 | [10] 0.043 | [11] -0.01 | rosiglitazone -0.006 | [12] -0.056 | [13] -0.028

CHML (UniProt P26374)
inactive: [1] -0.004 | [2] -0.016 | [3] 0.04 | [4] 0.015 | Nexturastat A -0.036 | vemurafenib 0.014 | [5] 0.071 | [6] -0.065 | givinostat -0.088 | barasertib 0.019 | [7] 0 | volasertib -0.086 | [8] 0.008 | epoxomicin -0.004 | [9] -0.045 | [10] -0.055 | [11] -0.002 | rosiglitazone 0.028 | [12] -0.07 | [13] 0.036

CEP170 (UniProt Q5SW79)
inactive: [1] 0.032 | [2] 0.013 | [3] -0.084 | [4] -0.065 | Nexturastat A 0.158 | vemurafenib 0.007 | [5] -0.014 | [6] 0.064 | givinostat 0.05 | barasertib -0.035 | [7] 0.037 | volasertib 0.16 | [8] 0.042 | epoxomicin -0.101 | [9] 0.002 | [10] 0.104 | [11] -0.061 | rosiglitazone -0.063 | [12] 0.129 | [13] -0.082

CFH (UniProt P08603)
inactive: [1] 0.025 | [2] 0.012 | [3] -0.006 | [4] -0.013 | Nexturastat A 0.013 | vemurafenib -0.025 | [5] -0.051 | [6] 0.053 | givinostat -0.081 | barasertib -0.023 | [7] 0.059 | volasertib 0.023 | [8] -0.113 | epoxomicin -0.054 | [9] 0.115 | [10] 0.103 | [11] -0.066 | rosiglitazone -0.075 | [12] -0.028 | [13] 0.146

CDKAL1 (UniProt Q5VV42)
inactive: [1] 0.007 | [2] -0.059 | [3] -0.016 | [4] 0 | Nexturastat A 0.035 | vemurafenib 0.022 | [5] 0.002 | [6] -0.012 | givinostat -0.117 | barasertib -0.004 | [7] 0.1 | volasertib 0.039 | [8] 0.046 | epoxomicin -0.02 | [9] -0.021 | [10] -0.036 | [11] 0.02 | rosiglitazone 0.071 | [12] -0.014 | [13] -0.01

CGGBP1 (UniProt Q9UFW8)
inactive: [1] 0.001 | [2] 0.031 | [3] -0.016 | [4] 0.011 | Nexturastat A 0.055 | vemurafenib 0.03 | [5] -0.017 | [6] -0.06 | givinostat 0.064 | barasertib 0 | [7] 0.017 | volasertib 0.061 | [8] 0.025 | epoxomicin 0.012 | [9] -0.007 | [10] 0.004 | [11] -0.059 | rosiglitazone -0.011 | [12] 0.021 | [13] 0.028

CHMP4A isoform 2 (UniProt Q9BY43)
inactive: [1] -0.021 | [2] 0.034 | [3] -0.021 | [4] 0.029 | Nexturastat A -0.082 | vemurafenib -0.01 | [5] -0.053 | [6] -0.028 | givinostat -0.027 | barasertib 0.011 | [7] -0.015 | volasertib 0.083 | [8] -0.034 | epoxomicin 0.025 | [9] 0.02 | [10] 0.004 | [11] -0.061 | rosiglitazone -0.028 | [12] -0.022 | [13] -0.042

CDCA3 (UniProt Q99618)
inactive: [1] -0.013 | [2] 0.009 | [3] -0.03 | [4] -0.02 | Nexturastat A 0.041 | vemurafenib -0.038 | [5] -0.043 | [6] -0.023 | givinostat -0.003 | barasertib 0.003 | [7] 0.057 | volasertib 0.088 | [8] -0.053 | epoxomicin 0.009 | [9] 0.059 | [10] -0.025 | [11] 0.002 | rosiglitazone -0.011 | [12] 0.02 | [13] 0.011

CDK7 (UniProt P50613)
inactive: [1] -0.018 | [2] 0.012 | [3] 0.013 | [4] 0.034 | Nexturastat A 0.021 | vemurafenib 0.01 | [5] 0 | [6] -0.034 | givinostat 0.004 | barasertib 0.004 | [7] 0.026 | volasertib -0.099 | [8] -0.023 | epoxomicin 0.04 | [9] -0.028 | [10] 0.058 | [11] -0.026 | rosiglitazone 0.005 | [12] -0.032 | [13] -0.026

CDK2 (UniProt P24941)
inactive: [1] -0.012 | [2] -0.005 | [3] -0.009 | [4] 0.029 | Nexturastat A -0.062 | vemurafenib -0.008 | [5] 0.005 | [6] -0.069 | givinostat 0.038 | barasertib -0.007 | [7] 0.009 | volasertib -0.047 | [8] 0.027 | epoxomicin 0.002 | [9] 0.012 | [10] -0.047 | [11] -0.005 | rosiglitazone 0.038 | [12] -0.058 | [13] 0.018

CHMP2B (UniProt Q9UQN3)
inactive: [1] -0.032 | [2] 0.016 | [3] 0.028 | [4] 0.055 | Nexturastat A -0.026 | vemurafenib 0.011 | [5] 0.061 | [6] -0.017 | givinostat 0.001 | barasertib 0.012 | [7] -0.19 | volasertib -0.102 | [8] -0.022 | epoxomicin 0.034 | [9] 0.057 | [10] -0.003 | [11] -0.03 | rosiglitazone -0.011 | [12] -0.013 | [13] -0.082
